Results as given in publication PMC9558053, “Development of a novel high-throughput screen for the identification of new inhibitors of protein S-acylation” (The Journal of Biological Chemistry, 2022).

Test system: HA-tagged human zDHHC2 expression
Assay: Expression level of HA-zDHHC2 in treated HEK293T cells (HA signal/Total Protein Stain)
Type: cell-based
Details: 25 μM

SMILES	level of zDHHC2 enzyme expression
CCCCCCCOc1ccc(C(=O)Nc2cccc3c2OC(c2nnn[nH]2)CN3)cc1 (centres unmarked) [TTZ-1, N-(2-(1H-Tetrazol-5-yl)-3,4-dihydro-2H-benzo[b][1,4]oxazin-8-yl)-4-(heptyloxy)benzamide]	unaffected
O=C(Nc1cccc2c1OC(c1nnn[nH]1)CN2)c1ccc(OCCCCc2ccccc2)cc1 (centres unmarked) [TTZ-2, N-(2-(1H-Tetrazol-5-yl)-3,4-dihydro-2H-benzo[b][1,4]oxazin-8-yl)-4-(4-phenylbutoxy)benzamide]	unaffected
